Plain letter strings leave the end groups untold.

Here are results for one sequence from US12005123B2 (CAREGEN CO., LTD., priority 2017, dated 2024).

The data set in a line: general procedure: Fmoc solid-phase peptide synthesis; chlorotrityl chloride resin; Bop/HoBt/DIEA. Particulars: whole synthesis.

In turn, RRLIDRTNANFLVM yielded a crude mass of 1.49 g. The sequence also registered a crude yield (scale of the general procedure 700 mg resin) of 86.5%.
